# Assay results taken from the supplement of paper PMC8728848.
# The list shows a part of the results.
# B1: AFL6 (Aspergillus fumigatus), Q4WKJ1 (protein)
# chain: MSFHLTAEDIRIEDGHRLVARLRNADGDLQDASIDLNTCLGNDNGHFQWDGVDFSHSAQDVHFAIEGGGQVPVLRAQLANQDGEFQDADVNLSERIENINGEFVFH
# How the values were obtained:
# Experiment in all cases: glycan array binding signal (z-score within array); higher = stronger binding
# Settings in all cases: glycan notation: IUPAC condensed, linker removed
# Fuc(a1-2)Gal = molecular target: Fuc(a1-2)Gal
# Method in brief: (§1)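 Negative Z-scores can be read as non-binding. The Z-score is calculated within each array and then averaged across arrays of one protein sequence at different concentrations or buffers and across linkers. Arrays, 3228 in all, were curated from the Consortium for Functional Glycomics database and kept only where the protein sequence was available.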
# Fuc(a1-2)Gal(b1-3)GalNAc = molecular target: Fuc(a1-2)Gal(b1-3)GalNAc
# Method in brief: as §1
# [1] = molecular target: Fuc(a1-2)Gal(b1-3)GalNAc(a1-3)[Fuc(a1-2)]Gal(b1-4)Glc
# Method in brief: as §1
# [2] = molecular target: Fuc(a1-2)Gal(b1-3)GalNAc(a1-3)[Fuc(a1-2)]Gal(b1-4)GlcNAc
# Method in brief: as §1
# [3] = molecular target: Fuc(a1-2)Gal(b1-3)GalNAc(b1-3)Gal
# Method in brief: as §1
# [4] = molecular target: Fuc(a1-2)Gal(b1-3)GalNAc(b1-3)Gal(a1-4)Gal(b1-4)Glc
# Method in brief: as §1
# [5] = molecular target: Fuc(a1-2)Gal(b1-3)GalNAc(b1-4)[Neu5Ac(a2-3)]Gal(b1-4)Glc
# Method in brief: as §1
# Fuc(a1-2)Gal(b1-3)GlcNAc = molecular target: Fuc(a1-2)Gal(b1-3)GlcNAc
# Method in brief: as §1
# [6] = molecular target: Fuc(a1-2)Gal(b1-3)GlcNAc(b1-2)Man(a1-3)[Fuc(a1-2)Gal(b1-3)GlcNAc(b1-2)Man(a1-6)]Man(b1-4)GlcNAc(b1-4)GlcNAc
# Method in brief: as §1
# [7] = molecular target: Fuc(a1-2)Gal(b1-3)GlcNAc(b1-2)Man(a1-3)[Fuc(a1-2)Gal(b1-3)GlcNAc(b1-2)Man(a1-6)]Man(b1-4)GlcNAc(b1-4)[Fuc(a1-6)]GlcNAc
# Method in brief: as §1
# [8] = molecular target: Fuc(a1-2)Gal(b1-3)GlcNAc(b1-3)Gal(b1-4)Glc
# Method in brief: as §1
# [9] = molecular target: Fuc(a1-2)Gal(b1-3)GlcNAc(b1-3)GalNAc
# Method in brief: as §1
# [10] = molecular target: Fuc(a1-2)Gal(b1-3)GlcNAc(b1-3)[Fuc(a1-2)Gal(b1-3)GlcNAc(b1-6)]GalNAc
# Method in brief: as §1
# [11] = molecular target: Fuc(a1-2)Gal(b1-3)GlcNAc(b1-3)[Gal(b1-4)GlcNAc(b1-6)]Gal(b1-4)Glc
# Method in brief: as §1
# [12] = molecular target: Fuc(a1-2)Gal(b1-3)GlcNAc(b1-3)[Neu5Ac(a2-6)Gal(b1-4)GlcNAc(b1-6)]Gal(b1-4)Glc
# Method in brief: as §1
# [13] = molecular target: Fuc(a1-2)Gal(b1-3)GlcNAc6S
# Method in brief: as §1
# [14] = molecular target: Fuc(a1-2)Gal(b1-3)[Fuc(a1-4)]GlcNAc
# Method in brief: as §1
# [15] = molecular target: Fuc(a1-2)Gal(b1-3)[Fuc(a1-4)]GlcNAc(b1-2)Man(a1-3)[Fuc(a1-2)Gal(b1-3)[Fuc(a1-4)]GlcNAc(b1-2)Man(a1-3)]Man(b1-4)GlcNAc(b1-4)GlcNAc
# Method in brief: as §1
# [16] = molecular target: Fuc(a1-2)Gal(b1-3)[Fuc(a1-4)]GlcNAc(b1-2)Man(a1-3)[Fuc(a1-2)Gal(b1-3)[Fuc(a1-4)]GlcNAc(b1-2)Man(a1-6)]Man(b1-4)GlcNAc(b1-4)[Fuc(a1-6)]GlcNAc(b1-4)[Fuc(a1-6)]GlcNAc
# Method in brief: as §1
# [17] = molecular target: Fuc(a1-2)Gal(b1-3)[Fuc(a1-4)]GlcNAc(b1-3)[Fuc(a1-3)[Gal(b1-4)]GlcNAc(b1-6)]Gal(b1-4)Glc
# Method in brief: as §1
# [18] = molecular target: Fuc(a1-2)Gal(b1-3)[Fuc(a1-4)]GlcNAc(b1-3)[Gal(b1-4)GlcNAc(b1-6)]Gal(b1-4)Glc
# Method in brief: as §1
# [19] = molecular target: Fuc(a1-2)Gal(b1-4)Fuc(a1-3)]GlcNAc(b1-2)Man(a1-3)[Fuc(a1-2)Gal(b1-4)[Fuc(a1-3)]GlcNAc(b1-2)Man(a1-6)]Man(b1-4)GlcNAc(b1-4)GlcNAc
# Method in brief: as §1
# Fuc(a1-2)Gal(b1-4)Glc = molecular target: Fuc(a1-2)Gal(b1-4)Glc
# Method in brief: as §1
# Fuc(a1-2)Gal(b1-4)Glc6S = molecular target: Fuc(a1-2)Gal(b1-4)Glc6S
# Method in brief: as §1
# Fuc(a1-2)Gal(b1-4)GlcNAc = molecular target: Fuc(a1-2)Gal(b1-4)GlcNAc
# Method in brief: as §1
# [20] = molecular target: Fuc(a1-2)Gal(b1-4)GlcNAc(b1-2)Man
# Method in brief: as §1
# [21] = molecular target: Fuc(a1-2)Gal(b1-4)GlcNAc(b1-2)Man(a1-3)[Fuc(a1-2)Gal(b1-4)GlcNAc(b1-2)Man(a1-6)]Man(b1-4)GlcNAc(b1-4)GlcNAc
# Method in brief: as §1
# [22] = molecular target: Fuc(a1-2)Gal(b1-4)GlcNAc(b1-2)Man(a1-3)[Fuc(a1-2)Gal(b1-4)GlcNAc(b1-2)Man(a1-6)]Man(b1-4)GlcNAc(b1-4)[Fuc(a1-6)]GlcNAc
# Method in brief: as §1
# [23] = molecular target: Fuc(a1-2)Gal(b1-4)GlcNAc(b1-2)[Fuc(a1-2)Gal(b1-4)GlcNAc(b1-4)]Man(a1-3)[Fuc(a1-2)Gal(b1-4)GlcNAc(b1-2)Man(a1-6)]Man(b1-4)GlcNAc(b1-4)GlcNAc
# Method in brief: as §1
# [24] = molecular target: Fuc(a1-2)Gal(b1-4)GlcNAc(b1-3)Gal(b1-4)GlcNAc
# Method in brief: as §1
# [25] = molecular target: Fuc(a1-2)Gal(b1-4)GlcNAc(b1-3)Gal(b1-4)GlcNAc(b1-2)Man(a1-3)[Fuc(a1-2)Gal(b1-4)GlcNAc(b1-3)Gal(b1-4)GlcNAc(b1-2)Man(a1-6)]Man(b1-4)GlcNAc(b1-4)GlcNAc
# Method in brief: as §1
# [26] = molecular target: Fuc(a1-2)Gal(b1-4)GlcNAc(b1-3)Gal(b1-4)GlcNAc(b1-3)Gal(b1-4)GlcNAc
# Method in brief: as §1
# [27] = molecular target: Fuc(a1-2)Gal(b1-4)GlcNAc(b1-3)GalNAc
# Method in brief: as §1
# [28] = molecular target: Fuc(a1-2)Gal(b1-4)GlcNAc(b1-3)[Fuc(a1-2)Gal(b1-4)GlcNAc(b1-6)]GalNAc
# Method in brief: as §1
# [29] = molecular target: Fuc(a1-2)Gal(b1-4)GlcNAc(b1-3)[Fuc(a1-3)[Gal(b1-4)]GlcNAc(b1-6)]Gal(b1-4)Glc
# Method in brief: as §1
# [30] = molecular target: Fuc(a1-2)Gal(b1-4)GlcNAc(b1-6)GalNAc
# Method in brief: as §1
# [31] = molecular target: Fuc(a1-2)Gal(b1-4)GlcNAc6S
# Method in brief: as §1
# [32] = molecular target: Fuc(a1-2)Gal(b1-4)[Fuc(a1-3)]GlcNAc
# Method in brief: as §1
# [33] = molecular target: Fuc(a1-2)Gal(b1-4)[Fuc(a1-3)]GlcNAc(b1-2)Man(a1-3)[Fuc(a1-2)Gal(b1-4)[Fuc(a1-3)]GlcNAc(b1-2)Man(a1-6)]Man(b1-4)GlcNAc(b1-4)[Fuc(a1-6)]GlcNAc
# Method in brief: as §1
# [34] = molecular target: Fuc(a1-2)Gal(b1-4)[Fuc(a1-3)]GlcNAc(b1-2)[Fuc(a1-2)Gal(b1-4)[Fuc(a1-3)]GlcNAc(b1-4)]Man(a1-3)[Fuc(a1-2)Gal(b1-4)[Fuc(a1-3)]GlcNAc(b1-2)Man(a1-6)]Man(b1-4)GlcNAc(b1-4)GlcNAc
# Method in brief: as §1
# [35] = molecular target: Fuc(a1-2)Gal(b1-4)[Fuc(a1-3)]GlcNAc(b1-3)Gal(b1-4)[Fuc(a1-3)]GlcNAc
# Method in brief: as §1
# [36] = molecular target: Fuc(a1-2)Gal(b1-4)[Fuc(a1-3)]GlcNAc(b1-3)Gal(b1-4)[Fuc(a1-3)]GlcNAc(b1-3)Gal(b1-4)[Fuc(a1-3)]GlcNAc
# Method in brief: as §1
# [37] = molecular target: Fuc(a1-2)Gal(b1-4)[Fuc(a1-3)]GlcNAc(b1-3)GalNAc
# Method in brief: as §1
# [38] = molecular target: Fuc(a1-2)Gal(b1-4)[Fuc(a1-3)]GlcNAc(b1-3)[Neu5Ac(a2-6)Gal(b1-4)GlcNAc(b1-6)]Gal(b1-4)Glc
# Method in brief: as §1
# [39] = molecular target: Fuc(a1-2)Gal3S(b1-4)GlcNAc
# Method in brief: as §1
binder,measurement,setting,value
B1,glycan array binding signal (z-score),Fuc(a1-2)Gal,-0.499
same,glycan array binding signal (z-score),Fuc(a1-2)Gal(b1-3)GalNAc,-0.354
same,glycan array binding signal (z-score),[1],-0.421
same,glycan array binding signal (z-score),[2],0.068
same,glycan array binding signal (z-score),[3],0.034
same,glycan array binding signal (z-score),[4],-0.515
same,glycan array binding signal (z-score),[5],0.764
same,glycan array binding signal (z-score),Fuc(a1-2)Gal(b1-3)GlcNAc,-0.167
same,glycan array binding signal (z-score),[6],2.45
same,glycan array binding signal (z-score),[7],0.456
same,glycan array binding signal (z-score),[8],-0.196
same,glycan array binding signal (z-score),[9],-0.615
same,glycan array binding signal (z-score),[10],0.086
same,glycan array binding signal (z-score),[11],0.033
same,glycan array binding signal (z-score),[12],-0.619
same,glycan array binding signal (z-score),[13],-0.598
same,glycan array binding signal (z-score),[14],-0.258
same,glycan array binding signal (z-score),[15],1.02
same,glycan array binding signal (z-score),[16],0.059
same,glycan array binding signal (z-score),[17],-0.86
same,glycan array binding signal (z-score),[18],-0.672
same,glycan array binding signal (z-score),[19],1.9
same,glycan array binding signal (z-score),Fuc(a1-2)Gal(b1-4)Glc,0.026
same,glycan array binding signal (z-score),Fuc(a1-2)Gal(b1-4)Glc6S,-0.234
same,glycan array binding signal (z-score),Fuc(a1-2)Gal(b1-4)GlcNAc,-0.661
same,glycan array binding signal (z-score),[20],-0.134
same,glycan array binding signal (z-score),[21],1.61
same,glycan array binding signal (z-score),[22],0.943
same,glycan array binding signal (z-score),[23],0.487
same,glycan array binding signal (z-score),[24],-0.096
same,glycan array binding signal (z-score),[25],1.21
same,glycan array binding signal (z-score),[26],-0.172
same,glycan array binding signal (z-score),[27],-0.685
same,glycan array binding signal (z-score),[28],-0.416
same,glycan array binding signal (z-score),[29],-0.559
same,glycan array binding signal (z-score),[30],-0.193
same,glycan array binding signal (z-score),[31],-0.334
same,glycan array binding signal (z-score),[32],-0.131
same,glycan array binding signal (z-score),[33],1.95
same,glycan array binding signal (z-score),[34],0.702
same,glycan array binding signal (z-score),[35],-0.293
same,glycan array binding signal (z-score),[36],0.433
same,glycan array binding signal (z-score),[37],0.408
same,glycan array binding signal (z-score),[38],-0.528
same,glycan array binding signal (z-score),[39],-0.365

# Some of the entries so far, bar-delimited.
binder | measurement | setting | value
B1 | glycan array binding signal (z-score) | [6] | 2.45
same | glycan array binding signal (z-score) | [15] | 1.02
same | glycan array binding signal (z-score) | [31] | -0.334
same | glycan array binding signal (z-score) | [35] | -0.293
